PubChem BioAssay AID743121 | NCATS, 2013
In all, the deposit lists about 26,000 reagents; shown is an unselected part. Over the whole deposit, 167 (0.63%) are marked active. 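Calls are per gene from RSA p-values that are not deposited; an individual active-marked siRNA can sensitise only weakly.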 A number with no mark means an inactive call. The numbers tell different reagents against one gene apart. Further read-outs or replicates are left out here.

Purpose: 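Genes whose silencing strengthens cell killing by camptothecin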 (primary screen)
Cells: MDA-MB-231 cells, a human breast cancer line
Reagent: single siRNA against human genes, 20 nM siRNA (0.8 pmol per well)
Time to read-out: 120 h (drug added 48 h after transfection, read 72 h later)
Treatment: camptothecin 20 nM (about EC30) for 72 h; vehicle 0.1% DMSO in parallel plates
Read-out: 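Cell viability by ATP luminescence (CellTiter-Glo) as % of non-targeting siRNA wells, and the log2 ratio of viability without drug over viability with camptothecin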
Direction: log2 vehicle/camptothecin viability: higher = stronger sensitisation to camptothecin
Rule for the call: 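Each gene scored by redundant siRNA activity (RSA) over its individual siRNA ratios; a gene is called active at p < 0.001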

gene | reagent | log2 vehicle/camptothecin viability
XPNPEP2 (X-prolyl aminopeptidase 2) | 1 | -0.374
XPNPEP2 (X-prolyl aminopeptidase 2) | 2 | -0.211
XPNPEP2 (X-prolyl aminopeptidase 2) | 3 | 0.0537
XPNPEP2 (X-prolyl aminopeptidase 2) | 4 | 0.0862
PRB1 (proline rich protein BstNI subfamily 1) | 1 | -0.0426
PRB1 (proline rich protein BstNI subfamily 1) | 2 | 0.864
PRB1 (proline rich protein BstNI subfamily 1) | 3 | -0.0278
PRB1 (proline rich protein BstNI subfamily 1) | 4 | -0.1
HSDL1 (hydroxysteroid dehydrogenase like 1) | 1 | -0.0922
HSDL1 (hydroxysteroid dehydrogenase like 1) | 2 | -0.0665
HSDL1 (hydroxysteroid dehydrogenase like 1) | 3 | -0.0853
HSDL1 (hydroxysteroid dehydrogenase like 1) | 4 | -0.226
ANKRD37 (ankyrin repeat domain 37) | 1 | 0.037
ANKRD37 (ankyrin repeat domain 37) | 2 | 0.0387
ANKRD37 (ankyrin repeat domain 37) | 3 | 0.0304
ANKRD37 (ankyrin repeat domain 37) | 4 | -0.0844
NDUFS4 (NADH:ubiquinone oxidoreductase subunit S4) | 1 | -0.0559
NDUFS4 (NADH:ubiquinone oxidoreductase subunit S4) | 2 | -0.502
NDUFS4 (NADH:ubiquinone oxidoreductase subunit S4) | 3 | -0.409
NDUFS4 (NADH:ubiquinone oxidoreductase subunit S4) | 4 | -0.0956
MMP1 (matrix metallopeptidase 1) | 1 | -0.128
MMP1 (matrix metallopeptidase 1) | 2 | -0.231
MMP1 (matrix metallopeptidase 1) | 3 | -0.301
MMP1 (matrix metallopeptidase 1) | 4 | 0.0986
BMP5 (bone morphogenetic protein 5) | 1 | -0.023
BMP5 (bone morphogenetic protein 5) | 2 | 0.893
BMP5 (bone morphogenetic protein 5) | 3 | -0.338
BMP5 (bone morphogenetic protein 5) | 4 | -0.175
TTC3 (tetratricopeptide repeat domain 3) | 1 | -0.0792
TTC3 (tetratricopeptide repeat domain 3) | 2 | 0.2
TTC3 (tetratricopeptide repeat domain 3) | 3 | -0.0527
TTC3 (tetratricopeptide repeat domain 3) | 4 | 1.03
STAG1 (STAG1 cohesin complex component) | 1 | -0.0408
STAG1 (STAG1 cohesin complex component) | 2 | -0.262
STAG1 (STAG1 cohesin complex component) | 3 | -0.0454
STAG1 (STAG1 cohesin complex component) | 4 | 0.27
ACACB (acetyl-CoA carboxylase beta) | 1 | 0.844
ACACB (acetyl-CoA carboxylase beta) | 2 | -0.431
ACACB (acetyl-CoA carboxylase beta) | 3 | -0.477
ACACB (acetyl-CoA carboxylase beta) | 4 | -0.104
ECT2 (epithelial cell transforming 2) | 1 | -0.167
ECT2 (epithelial cell transforming 2) | 2 | 0.125
ECT2 (epithelial cell transforming 2) | 3 | -0.0917
ECT2 (epithelial cell transforming 2) | 4 | -0.21
ADCK1 (aarF domain containing kinase 1) | 1 | -0.0562
ADCK1 (aarF domain containing kinase 1) | 2 | 0.434
ADCK1 (aarF domain containing kinase 1) | 3 | -0.196
ADCK1 (aarF domain containing kinase 1) | 4 | -0.482
ETNK1 (ethanolamine kinase 1) | 1 | -0.17
ETNK1 (ethanolamine kinase 1) | 2 | 0.129
ETNK1 (ethanolamine kinase 1) | 3 | -0.191
ETNK1 (ethanolamine kinase 1) | 4 | -0.504
MRC1 (mannose receptor C-type 1) | 1 | -0.378
MRC1 (mannose receptor C-type 1) | 2 | -0.329
MRC1 (mannose receptor C-type 1) | 3 | -0.0199
TMT1A (thiol methyltransferase 1A) | 1 | -0.33
TMT1A (thiol methyltransferase 1A) | 2 | -0.148
TMT1A (thiol methyltransferase 1A) | 3 | -0.15
ITGB6 (integrin subunit beta 6) | 1 | -0.0913
ITGB6 (integrin subunit beta 6) | 2 | 0.35
ITGB6 (integrin subunit beta 6) | 3 | 0.103
FANCG (FA complementation group G) | 1 | -0.00495
FANCG (FA complementation group G) | 2 | -0.688
FANCG (FA complementation group G) | 3 | 0.494
SMARCD3 (SWI/SNF related BAF chromatin remodeling complex subunit D3) | 1 | -0.302
SMARCD3 (SWI/SNF related BAF chromatin remodeling complex subunit D3) | 2 | -0.267
SMARCD3 (SWI/SNF related BAF chromatin remodeling complex subunit D3) | 3 | -0.421
SMARCD3 (SWI/SNF related BAF chromatin remodeling complex subunit D3) | 4 | 0.685

Records listed so far whose target name begins with M or m (7):
gene | reagent | log2 vehicle/camptothecin viability
MMP1 (matrix metallopeptidase 1) | 1 | -0.128
MMP1 (matrix metallopeptidase 1) | 2 | -0.231
MMP1 (matrix metallopeptidase 1) | 3 | -0.301
MMP1 (matrix metallopeptidase 1) | 4 | 0.0986
MRC1 (mannose receptor C-type 1) | 1 | -0.378
MRC1 (mannose receptor C-type 1) | 2 | -0.329
MRC1 (mannose receptor C-type 1) | 3 | -0.0199
